Results deposited as PubChem BioAssay AID504786 (Drosophila RNAi Screening Center, 2011).

Test: 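Fly genes required for HIF-dependent transcription when hypoxia is mimicked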 (primary screen)
Cell system: Drosophila S2 cells with a stable HIF luciferase reporter
Reagent: long dsRNA against Drosophila genes, about 0.2 µg dsRNA per well of a 384-well plate
Duration: three days of knock-down, then 20 h of DFO before reading
Challenge: desferrioxamine (DFO) at 100 µM, an iron chelator that mimics hypoxia, for 20 h
Read-out: 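Firefly luciferase driven by the mouse ldh-a hypoxia-response element, measured after 20 h of 100 µM DFO; z-scores per plate, higher means more signal lost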
Scale: z-score: higher = stronger loss of HIF reporter signal
The screen tested about 21,000 reagents; below is an unselected part of those with a known target gene and a result. 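Primary screen; positive scores mean lost reporter signal, so the sign may be inverted from the usual convention.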 The numbers tell different reagents against one gene apart. A plus sign joins genes that one reagent is predicted to hit. Reagent sequences are not shown.

The opening 3 records, to show the layout:
gene	reagent	z-score, replicate 1	z-score, replicate 2	z-score, replicate 3	z-score, replicate 4
Nazo	1	-0.1	0.1		
Fip1	1	1.5	1.3		
CG13203	1	0	-0.5		

The listing, from the start:
gene	reagent	z-score, replicate 1	z-score, replicate 2	z-score, replicate 3	z-score, replicate 4
Nazo	1	-0.1	0.1		
Fip1	1	1.5	1.3		
CG13203	1	0	-0.5		
Pig1	1	0.8	0.3		
thoc7	1	-0.3	-0.4		
CG7101	1	-0.3	-0.6		
RpS10a	1	-0.3	-0.6		
Sgs3	1	-0.4	-0.3		
Loxl1	1	-0.2	0.3		
CG1764	1	-0.2	-0.5		
CG31360	1	-0.5	-0.3		
CG7639	1	-0.3	-0.5		
CG32176	1	-0.3	0.3		
CG32176	2	-0.2	0		
Argl + CG9515	1	-0.4	-0.6		
Argl + CG9515	2	-0.3	-0.3		
Apc2	1	-0.2	-0.1		
CG30467	1	0	-0.1		
CG14341	1	-0.1	-0.3		
CG11052	1	0	-0.4		
Snoo	1	-0.2	-0.4		
Snoo	2	-0.3	-0.5		
Snoo	3	-0.4	-1.3		
gsb-n	1	0.1	-0.1		
gsb-n	2	0.1	-0.2		
Cyp28a5	1	-0.2	-0.3		
CG32652 (retired record)	1	-0.3	-0.1	-0.3	-0.2
Su(var)2-HP2	1	0	-0.3		
CG31431	1	0.2	-0.1		
CG6980	1	-0.3	-0.4		
bs	1	-0.3	0	4.4	3
csw	1	0.2	-0.3		
CG9903	1	-0.1	0.3		
Rab9	1	-0.4	-0.6		
DCAF12	1	-0.2	-0.3		
CG14984	1	-0.2	-0.6		
klar	1	-0.2	-0.3		
cpx	1	-0.3	-0.4		
CG10591	1	-0.4	-0.2		
CG34423 + Mthfs	1	-0.3	0		
Rpp30	1	-0.3	0.1		
CG14777	1	-0.3	-0.1		
CSN6	1	2.2	4.3		
Sas-4	1	-0.3	0		
CG43861	1	-0.3	-0.1		
CG5555	1	0.1	0		
CG14568	1	-0.3	0.1		
CG18754	1	0	1		
rempA	1	0.1	-0.2		
Pi3K21B	1	-0.3	-0.5		
l(3)S110416 (retired record)	1	-0.1	-0.1		
RpS30	1	3.8	7.6		
CG12991	1	-0.2	-0.3		
CG7290	1	-0.1	0.1		
BOD1	1	-0.3	-0.4		
CG7326	1	0	0.1		
Zif	1	-0.5	-1.1		
CG5421	1	-0.2	-0.3		
CG15403	1	-0.2	-0.1		
Pep	1	0.4	1.1		
CG13054	1	-0.4	-0.6		
CG3792	1	-0.1	0		
CG17681	1	-0.2	-0.4		
Shc	1	0.4	0.7		
AsnS	1	-0.1	-0.2		
M1BP	1	1.9	2		
CG13031	1	-0.3	-0.5		
frtz	1	0	0.1		
CG7071 + Muted	1	-0.4	-0.4		
Nf1	1	-0.3	0		
nAChRbeta1	1	0	-0.5		
nAChRbeta1	2	-0.3	-0.3		
GCC88	1	-0.3	-0.6		
Bruce	1	-0.4	-0.8		
Pat1	1	-0.3	0.1		
Dscam1	1	-0.2	-0.1		
Dscam1	2	-0.1	-0.1		
Dscam1	3	-0.2	-0.3		
CG43333	1	-0.3	-0.2		
Tmx3	1	0	-0.1		
CG30116	1	-0.2	-0.4		
CG30116	2	-0.2	-0.4		
CG17816	1	0.2	-0.3	0	-0.1
